## Library screen at single concentrations

A: 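Growth of Mycobacterium tuberculosis over 3 days (7H9 medium with glucose and tyloxapol); the read-out is not stated. Tested at 50 µM. The record gives no direction; compounds that gave an IC50 in retests scored well above the rest, so higher reads as more growth inhibition. Of about 69,000 compounds tested this way, about 760 (1.1%) reached 50% or more in at least one test.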
B: 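Whole-cell growth test on Mycobacterium tuberculosis, read after 4 days in a medium based on cholesterol and the lipid DPPC; the read-out is not stated. Compounds at 50 µM. Direction is inferred from retests: higher values go with more growth inhibition. Size under these conditions: about 69,000 compounds, about 370 of them at 50% or above in at least one test.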

Values are the deposited “Percent Effect”, in %.
The record does not define 0% and 100%; most values in the screen are far below 50% and negative numbers occur (in some assays of this library far below -100).
Compounds were drawn at random from those tested, without regard to their results.
Two or more numbers in one place are separate tests of the same structure; such repeats can differ widely.

Result for CC(c1nc(C(C)(C)C)no1)N1CCC(N2CCCC2)CC1 (centres undefined) was A: -40.52% and 12.5%; B: -15.53%. For Cc1noc(C)c1C(C)NC(=O)N1CCCN(C(=O)c2ccsc2)CC1 (centres undefined) the result was A: 7.238% and -0.3553%; B: -6.313%. CN1C(=O)C(c2ccccc2)CC12CCN(CCOCCO)CC2 (centres undefined) read A: -24.54%; B: -39.59%. For Cc1nc(-c2cc(F)c3c(c2)CC(CN)O3)c[nH]1 (centres undefined) the result was A: 40.34% and 36.14%; B: 6.269%. COCCc1noc(CNC2CCCN(c3cccnn3)C2)n1 (centres undefined) gave A: -26.2%; B: -35.66%.

With CC(C)CCC(=O)NCc1ccc(N2CCCCC2)cc1 the screen gave A: 12.11%; B: -6.955%. O=C(CSC(F)(F)F)N1CCC2(CCCN(C3CCOCC3)C2=O)C1 (centres undefined) gave A: -28.97%; B: -22.57%. With COc1cccc(CC(=O)N2CCCC(n3nc(C)cc3C)C2)c1 (centres undefined) the screen gave A: -3.118%; B: -2.786%. NC(=O)N1CCC2(CC1)CN(c1ncccn1)CCO2 gave A: -21.9%; B: -3.104% and -10.25%. With COCCc1noc(CN2CCCCC2Cn2cc(C)cn2)n1 (centres undefined) the screen gave A: -0.6691%; B: 9.225%.

Cc1ccc(CC2CCCN(S(C)(=O)=O)C2)nc1 (centres undefined) gave A: -24.25%; B: -24.8%. [H][C@]12CCC[C@@]1(COCc1cccnc1)CN(C(=O)c1cocn1)C2 gave A: -11.02%; B: -0.4261%. Result for CC(=O)N[C@@H](CC(C)C)C(=O)N1CCC(n2cc(C(C)(C)N)nn2)CC1 was A: 26.3%; B: -1.807%. Result for O=c1[nH][nH]cc1-c1ccnc(NCCN2CCCCC2)n1 was A: -5.439%; B: -6.136%. For Cc1nc(CN2CCN(C(=O)c3scnc3C)CC2)cs1 the result was A: 8.696%; B: 13.18%.

With CCn1c(N)nc2cc(C(=O)NCCc3nnc(C)s3)cnc21 the screen gave A: 6.467%; B: 10.89%. For CNC(=O)c1cccc(C2CNCCN2C(=O)c2ccn(C)n2)c1 (centres undefined) the result was A: -16.96%; B: -13.4%. CCN1CCC(Cn2ccc3c(OC)c(OC)ccc3c2=O)C1 (centres undefined) read A: 13.7%; B: 2.8%. Result for CCOCCCC(=O)NCc1cn2cc(Br)ccc2n1 was A: -1.532% and -6.404%; B: -14.99%. CCn1ncnc1C1CC(=O)NCc2nc(N3CCCC3)sc21 (centres undefined) gave A: 2.115%; B: -16.58%.

For O=C(O)CC(O)(CC(=O)O)C(=O)O.[H][C@]12CC[C@](O)(c3ccccn3)[C@@]1([H])CN(Cc1cccc3ncccc13)C2 the result was A: -7.3%; B: -4.274%. Result for CC(C)(C)c1n[nH]c(C2CN(C(=O)c3csnn3)CCO2)n1 (centres undefined) was A: -1.162% and -1.824%; B: 2.008%. With CC(=O)c1ccc(CNC(=O)c2c(C)cc(C)cc2C)nc1C the screen gave A: -0.5822%; B: 10.77%. O=C(c1ccc(O)cc1)N1CCN(C(=O)c2ccc3c(c2)COC3)CC1 read A: -2.739%; B: -0.8451%. O=C(Cc1ccsc1)N1CCCC(c2n[nH]c3ncccc23)C1 (centres undefined) gave A: -5.849%; B: 6.428%.

Result for COc1cc(N2CCC3(CC2)CC(N2CCOCC2)CO3)ncn1 (centres undefined) was A: 11.86%; B: -0.7077%. For CCc1[nH]c2c(CNc3cncc(C(=O)OC)n3)cc(C)cc2c1C the result was A: -54.69%; B: 3.758%. Result for O=C(NCC(F)(F)F)C(c1cccnc1)N1CCCC1 (centres undefined) was A: 30.02%; B: -2.47%. With CCn1ccnc1CN1CCN(Cc2cnc(C)cn2)CC1C (centres undefined) the screen gave A: -10.1%; B: -22.77%. For O=C(NCc1ccc2[nH]c(=O)[nH]c2c1)c1ccc(CN2CCCC2)o1 the result was A: -9.2% and 1.244%; B: -4.758%.

With Cc1cc(CN2CCC(N(C)Cc3noc(C4CC4)n3)C2)no1 (centres undefined) the screen gave A: 11.04%; B: -33.9%. CCn1cnnc1CNC(=O)c1ccc(Cl)cc1F read A: -3.065%; B: 0.6058%. For O=C(O)c1cccn1-c1ccc2c(c1)OCCO2 the result was A: 14.76%; B: -4.829%. Cc1cccc2cc(CN3CCC(N4CCCC4)CC3)c(=O)[nH]c12 read A: -14% and 26.89%; B: 13.79%. With C=C(C)C(=O)N1CCC(C(=O)c2cc(C)cnc2N)CC1 the screen gave A: 9.047%; B: 2.8%.

For Cc1cnc(CN2CCCC2c2noc(C)n2)cn1 (centres undefined) the result was A: -4.787%; B: -7.965%.

3 of the entries, repeated:

SMILES,A,B
O=C(NCc1ccc2[nH]c(=O)[nH]c2c1)c1ccc(CN2CCCC2)o1,-9.2 and 1.244,-4.758
O=C(NCC(F)(F)F)C(c1cccnc1)N1CCCC1 (centres undefined),30.02,-2.47
Cc1cnc(CN2CCCC2c2noc(C)n2)cn1 (centres undefined),-4.787,-7.965

Source: ChEMBL document CHEMBL3988442, “University of Dundee, Small-Polar-MMV Screening Library” (2021).